# Results deposited as PubChem BioAssay AID1259281 (Sanger Institute, 2017).
# Test: 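Find knock-downs that kill colorectal cancer cells alone or strengthen targeted drugs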 (primary screen)
# Cells: human COLO678 colorectal cancer cell line
# Reagent: siRNA pool against human genes
# Treatment: anchor drugs at fixed doses: BYL719 1 µM, cetuximab 5 µg/ml or trametinib 10 nM; DMSO vehicle for the siRNA-alone arm
# Measurement: 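Surviving cells scaled to non-targeting siRNA control as replicate means; robust z-score for knock-down alone; synergy scores weigh knock-down with drug against the predicted combined effect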
# Direction: robust z-score, siRNA alone: higher = more viable cells; strongly negative means essential; viability, siRNA alone: higher = more surviving cells; synergy score with BYL719: higher = stronger synergistic killing with drug
# Hit rule: 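Essential (knock-down alone) when the siRNA-alone robust z-score is below -3; otherwise no change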
# Calls: active = essential (knock-down alone); inactive = no change
# The deposit covers 794 reagents; below is a random part of them. Of all reagents, 22 (2.8%) got an active call. 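Calls rest on knock-down alone only; drug synergy scores play no part in them.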 A number with no mark means an inactive call. No viability above 1 is reported: the scale is capped. Further read-outs or replicates are left out here. The record does not give: the amount of reagent, the time to read-out.
"robust z-score, siRNA alone","viability, siRNA alone (fraction of control)",synergy score with BYL719,target
0.458,1,0.104,PRKD3
0.473,1,-0.0387,GALK2
-1.46,0.938,0.0584,PDK4
0.473,1,-0.0729,STAG2
0.473,1,-0.0788,PTK7
0.473,1,-0.0919,MAP3K1
0.473,1,0.0178,MAK
-2.2,0.915,-0.169,MLKL
0.473,1,-0.0423,CDK4
0.473,1,-0.0919,PRKAG1
0.473,1,0.0131,PRKAR2A
-1.57,0.935,0.0583,COASY
0.473,1,0.0828,MARK3
-0.383,0.973,0.0531,MAP3K5
0.473,1,-0.0919,LIMK1
0.473,1,-0.0919,TWF2
0.473,1,-0.0455,PRKG2
0.0954,0.988,0.117,DCK
0.473,1,0.0437,CHKB
0.473,1,-0.0483,RIPK2
